# Experimental data as given in the supplement of paper PMC10470496.
# Counter-ions that a name gives are not always drawn. The list shows a part of the results. Repeats are few or missing, and single values can be far off.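 The strains were three CDC resistance-bank clinical C. auris isolates from clades III, IV and I, cultured in RPMI-1640 at 35°C. Growth was background-corrected OD600 versus vehicle-only wells on the same plate. A hit needed >50% inhibition in two or more strains plus a plate-corrected B-score exceeding 0.1.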
# Test system: C. auris AR-386
# Experiment: growth relative to vehicle control (OD600 ratio) (fraction); higher = less inhibition
# Conditions: 10 µM; 24 h
row,Structure (SMILES),growth
1,Cc1cc(NS(=O)(=O)c2ccc(N)cc2)no1 [Sulfamethoxazole],0.82
2,NCc1ccc(S(N)(=O)=O)cc1 [Mafenide hydrochloride],1.32
3,O=c1[nH]cnc2c1ncn2[C@@H]1O[C@H](CO)[C@@H](O)[C@H]1O [Inosine],1.16
4,Cc1nc(-c2ccc(OCC(C)C)c(C#N)c2)sc1C(=O)O [Febuxostat],1.69
5,CCc1c2c(nc3ccc(OC(=O)N4CCC(N5CCCCC5)CC4)cc13)-c1cc3c(c(=O)n1C2)COC(=O)[C@]3(O)CC [Irinotecan HCl Trihydrate],1.21
6,C[N+](C)(C)CCOC(N)=O [Carbachol],0.9
7,NCCC(O)(P(=O)(O)O)P(=O)(O)O [Pamidronate Disodium],0.94
8,Clc1ccc(COC(Cn2ccnc2)c2ccc(Cl)cc2Cl)c(Cl)c1 (stereo not drawn) [Miconazole],0.67
9,CC(C)(C)c1nc(-c2cccc(NS(=O)(=O)c3c(F)cccc3F)c2F)c(-c2ccnc(N)n2)s1,0.65
10,CCCc1nc(C(C)(C)O)c(C(=O)OCc2oc(=O)oc2C)n1Cc1ccc(-c2ccccc2-c2nnn[nH]2)cc1 [Olmesartan Medoxomil],1.23
11,Cc1ccsc1C(=CCCN1CCC[C@@H](C(=O)O)C1)c1sccc1C [Tiagabine],0.87
12,NS(=O)(=O)c1cc2c(cc1Cl)N=C(CSCc1ccccc1)NS2(=O)=O [Benzthiazide],1
13,Cc1nc(C(=O)NCC(=O)O)c(O)c2ccc(Oc3ccccc3)cc12 [Roxadustat (FG-4592)],0.69

# Laid out differently: 2 of the compounds above
row	Structure (SMILES)	growth
3	O=c1[nH]cnc2c1ncn2[C@@H]1O[C@H](CO)[C@@H](O)[C@H]1O [Inosine]	1.16
6	C[N+](C)(C)CCOC(N)=O [Carbachol]	0.9
